# Results published in patent publication US20060193784A1 (priority 2005, published 2006).
# Read-outs that look alike come from different tables or passages of the source.
# What was measured:
# [1] = cited from earlier work
# in vivo = conditions: male, New Zealand albino, rabbit, iv, 100 ug/kg
# [2] = after oral administration (Renner et al.)
smiles,measurement,setting,value
"CN1[C@@H]2C[C@@H](OC(=O)[C@H](CO)c3ccccc3)C[C@H]1[C@@H]1O[C@@H]12 [scopolamine, L-(−)-hyoscine]",non-metabolized scopolamine excreted in urine,[1]; [2],2.6%
same,time until peak plasma concentration is reached,[1]; [2],30 min
same,time until peak plasma concentration is reached,[1]; after transdermal dosing (Cintron et al.; Shaw et al.),720 to 960 min
same,AUC(0-inf),in vivo,1280 ng·h/mL
